Data as given in PubChem BioAssay AID1487 (National Center for Advancing Translational Sciences (NCATS), 2009).
Values joined by “and” are separate entries in the source; they are usually repeats but may differ in a detail not shown here. Equal values may be shown once. The list shows a part of the results. The main result of the screen is listed elsewhere. These columns were measured beside it and carry no call. Compounds called inactive in the main read-out are mostly missing here. Words in brackets tell the shape of the fitted curve; partial curves, single points and poor fits give uncertain potencies.

Experiment: qHTS Assay for Modulators of Lamin A Splicing
Settings: HeLa LMNA splicing GFP/RFP minigene ratio, 48 h
How it was run: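 S3 HeLa stable clones carrying a lamin A-EGFP splicing minigene plus DsRed2 were seeded at 600 cells/well in Opti-MEM with 2% FBS, pin-dosed and incubated 48 h at 37°C. Acumen cytometry (488 nm) gave the GFP/RFP total-intensity ratio.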

[1] = measured here: RFP viability control channel
[2] = measured here: GFP splicing reporter channel

SMILES	AC50 [1]	AC50 [2]
CCC(Oc1ccccc1)C(=O)Nc1ccc(S(=O)(=O)NCC2CCCO2)cc1 (stereo not given)	11.2 µM [rising, partial curve]	–
CN(C)CCCN1c2ccccc2Sc2ccc(C(F)(F)F)cc21	11.2 µM [falling, partial curve]	12.6 µM [falling, partial curve]
Cc1cccc(NC(=O)c2cc(S(=O)(=O)NCc3ccc4c(c3)OCO4)ccc2F)c1C	–	8.91 µM [falling, partial curve, poor fit]
Oc1ccc2oc3c(c2c1/C=N/n1cnnc1)CCCC3	0.282 µM [falling, full curve]	–
Cc1cc(C)c(C(CC(=O)c2cccs2)C(C#N)C#N)c(C)c1 (stereo not given)	12.6 µM [rising, partial curve]	–
O=C(NCc1ccc2c(c1)CCN2C(=O)c1ccccc1)Nc1cc(F)ccc1F	–	0.562 µM [rising, single point]
Cc1ccc(-c2csc3ncnc(NCCN4CCOCC4)c23)cc1	11.2 µM [falling, partial curve]	10 µM [falling, partial curve]
CCOc1ccc(C(C)=O)cc1COC(=O)c1cccnc1SC	35.5 µM [falling, single point]	35.5 µM [falling, single point]
CCCc1nnc(NC(=O)c2cccc(OC)c2)s1	0.0126 µM [rising, full curve, poor fit]	5.62 µM [rising, full curve, poor fit]
COc1ccc(Cl)cc1NS(=O)(=O)c1ccc(S(=O)(=O)N2CCCC2)cc1	25.1 µM [rising, single point]	11.2 µM [rising, partial curve]
CCOC(=O)c1c(C)sc(-c2c(-c3cc(C)ccc3C)[nH]c3c2c(=O)n(C)c(=O)n3C)c1O	7.94 µM [rising, partial curve]	12.6 µM [rising, partial curve]
OCC1(Cc2ccc(Cl)cc2)CCN(CCCc2ccccc2)CC1	–	0.0708 µM [falling, partial curve, poor fit]
Cc1ccc(NS(=O)(=O)c2ccc(C(=O)N3CCN(c4ccccn4)CC3)cc2)cc1	11.2 µM [rising, partial curve]	–
CCN(c1ccc(C)cc1)S(=O)(=O)c1nnc(NC(=O)C2CCCCC2)s1	–	1.58 µM [rising, partial curve, poor fit]
CCCNC(=O)CSc1nc2ccccc2nc1Cc1ccc(Cl)cc1	1.78 µM [rising, partial curve]	3.16 µM [rising, partial curve]
CCOC(=O)/C(=C\c1ccc([N+](=O)[O-])cc1)C(=O)c1cc(C(C)=O)c(Nc2ccccc2)s1	10 µM [falling, single point]	5.01 µM [falling, single point]
Cc1ccc(OCC(=O)NCC(c2ccc(Cl)cc2)N2CCCCC2)cc1 (stereo not given)	–	31.6 µM [falling, single point]
Cc1cc(C(=O)Nc2ccccc2C(=O)O)ccc1NC(=O)COc1cccc([N+](=O)[O-])c1	0.0562 µM [falling, full curve]	0.0891 µM [falling, full curve, poor fit]
O=S(=O)(c1ccccc1)N1CCN=C1SCc1cccc(Cl)c1	20 µM [rising, single point]	11.2 µM [rising, single point]
O=Cc1ccccc1C=O	–	11.2 µM [rising, partial curve, poor fit]
CCOC(=O)C1=C(C)NC(C)=C(C(=O)OCC)C1/C=C/c1ccccc1OC	35.5 µM [rising, single point]	31.6 µM [rising, single point]
Cc1ccc(C(C(=O)NC(C)(C)C)N(Cc2ccccc2)C(=O)c2snc(C(N)=O)c2N)o1 (stereo not given)	20 µM [rising, single point]	–
CCC(C(=O)Nc1nnc2n1CCS2)c1ccccc1 (stereo not given)	0.0708 µM [falling, full curve, poor fit]	–
Cc1ccc(Nc2nc(N)c([N+](=O)[O-])c(NCc3ccco3)n2)cc1C	14.1 µM [falling, single point]	11.2 µM [falling, partial curve]
CCOc1ccc(-c2n[nH]c(C)c2Oc2ccccc2OC)c(O)c1	35.5 µM [rising, single point]	–
CS(=O)(=O)N(Cc1ccccc1)c1ccc(C(=O)N2CCN(c3cccc(Cl)c3)CC2)cc1	22.4 µM [rising, single point]	–

SMILES	AC50 [1]	AC50 [2]
CC(=O)c1ccccc1NC(=O)CN1C(=O)CS/C1=C\c1nc(-c2ccc(C)cc2)cs1	0.00398 µM [falling, full curve, poor fit]	0.00447 µM [falling, full curve, poor fit]
CCOc1ccc2nc(NC(=O)CSc3nc4c(c(=O)n(C)c(=O)n4C)n3C(C)C)sc2c1	10 µM [rising, partial curve]	15.8 µM [rising, partial curve, poor fit]
Cc1ccc(NS(=O)(=O)c2cnc(N)nc2)c(C)c1	–	0.0447 µM [falling, full curve, poor fit]
Cc1ccccc1S(=O)(=O)Cc1ccc(C(=O)N2CCN(c3ccc(F)cc3)CC2)o1	31.6 µM [rising, single point]	–
COc1ccc(-c2nn(-c3ccccc3)cc2/C=N/NC(=O)c2cccc(S(=O)(=O)Nc3ccccc3OC)c2)cc1	11.2 µM [rising, partial curve]	–
COc1ccccc1N1CCN(C(=O)c2ccc(Cl)c(S(=O)(=O)N3CCCC3)c2)CC1	3.16 µM [falling, partial curve, poor fit]	2.82 µM [falling, partial curve, poor fit]
Cc1cc(C)n(CC(=O)NCc2cc(-c3nn(C)c(=O)c4ccccc34)ccc2C)n1	12.6 µM [rising, partial curve]	10 µM [rising, partial curve]
Cc1ccccc1OCC(=O)Nc1ccccc1-c1ccccc1NC(=O)COc1ccccc1C	7.94 µM [rising, partial curve, poor fit]	7.08 µM [rising, full curve, poor fit]
Cc1ccc(N(CC(=O)N/N=C/c2cccc(Br)c2)S(C)(=O)=O)cc1	14.1 µM [rising, partial curve]	20 µM [rising, partial curve]
Oc1ccc(N2CCN(C(=S)NCc3ccccc3)CC2)cc1	–	10 µM [falling, partial curve, poor fit]
COCCNC(=S)N/N=C(\C)c1cccc(C(F)(F)F)c1	–	6.31 µM [falling, partial curve, poor fit]
CCCN(CCC)S(=O)(=O)c1ccc(C(=O)Nc2ccc(OCC(=O)N3CCOCC3)cc2)cc1	3.16 µM [rising, full curve]	2.82 µM [rising, single point]
Cc1cc(C(=O)COC(=O)CC2Sc3ccccc3NC2=O)c(C)n1-c1cccc(C(F)(F)F)c1 (stereo not given)	35.5 µM [rising, single point]	–
CCn1c(SCc2ccc(C(=O)Nc3nccs3)cc2)nnc1-c1ccc(N)cc1	17.8 µM [rising, single point]	–
CCNC1=C(Cl)C(=O)c2ccccc2C1=O	15.8 µM [falling, partial curve]	7.08 µM [falling, partial curve]
O=C(Nc1ccc(Nc2ccccc2)cc1)C(Cl)(Cl)Cl	–	11.2 µM [rising, single point]
COc1ccc(NC(=O)c2cc(S(=O)(=O)N3CCCCC3)cn2C)cc1Cl	1.26 µM [falling, full curve, poor fit]	3.55 µM [falling, single point]
O=C(Nc1ccc(S(=O)(=O)N2CCCCC2c2cccnc2)cc1)c1ccc(F)cc1 (stereo not given)	3.98 µM [falling, partial curve, poor fit]	–
O=C(Nc1nc(-c2ccccn2)cs1)c1ccc(Br)s1	12.6 µM [rising, partial curve]	35.5 µM [rising, single point]
CN(C)c1ccc(-c2noc(C3CC(=O)N(c4ccc5c(c4)OCCO5)C3)n2)cc1 (stereo not given)	12.6 µM [rising, single point]	–
COc1cc(C(=O)OCCCN2CCCN(CCCOC(=O)c3cc(OC)c(OC)c(OC)c3)CC2)cc(OC)c1OC	0.00158 µM [falling, full curve, poor fit]	708 nM [falling, full curve, poor fit] and 2 µM [falling, partial curve, poor fit]
COCCn1c(C)cc(C(=O)CSc2nncn2-c2ccccc2)c1C	–	15.8 µM [rising, single point]
CC(/C=C/c1ccccc1)=N\NC(=O)C1CC1(C)c1ccccc1 (stereo not given)	11.2 µM [rising, single point]	–
COC(=O)C1=C(C)NC(C)=C([N+](=O)[O-])C1c1ccccc1C(F)(F)F (stereo not given)	0.00447 µM [falling, full curve, poor fit]	–
O=c1oc2ccccc2cc1-c1ccc(O)cc1O	12.6 µM [rising, partial curve, poor fit]	15.8 µM [rising, partial curve, poor fit]

Entries of single compounds as entered above. Order of values: AC50 [1]	AC50 [2]
CN(C)CCCN1c2ccccc2Sc2ccc(C(F)(F)F)cc21 as listed: 11.2 µM [falling, partial curve]	12.6 µM [falling, partial curve]
CCNC1=C(Cl)C(=O)c2ccccc2C1=O as listed: 15.8 µM [falling, partial curve]	7.08 µM [falling, partial curve]
O=C(Nc1ccc(S(=O)(=O)N2CCCCC2c2cccnc2)cc1)c1ccc(F)cc1 (stereo not given) as listed: 3.98 µM [falling, partial curve, poor fit]	–
